Measured values published in PMC4087297, “Purification and Characterization of Catalase from Marine Bacterium Acinetobacter sp. YS0810” (BioMed Research International, 2014).
Counter-ions that a name gives are not always drawn.

System: T1, YS0810CAT
T1 construct: gene catalase; native purification from marine isolate (Qingdao coast)
Experiment: H2O2 decomposition, absorbance at […] nm
Type: biochemical, Acinetobacter sp. YS0810
Conditions: 30 min preincubation in 50 mM potassium phosphate pH 7.0, 25 °C, 30 mM H2O2

Structure (SMILES) | Inhibition (r/%) (50 µM) | Inhibition (r/%) (1000 µM)
NO [hydroxylamine hydrochloride] | 78% | –
Nc1nc[nH]n1 [3-amino-1,2,4-triazole] | – | 86%
